Our source for the binding values is publication doi:10.1101/2020.05.01.072124.

No constants are given. Whether binding was seen depends on the method and setting. Binding seen in cells or lysates may run through a third protein. These calls come from enrichment with a bait or labelling near it, and not all partners need be listed. Where a sequence is shown, tags or fusion partners need not be part of it.

This assay addresses T1, MYC-BirA-ATOX1, O00244.
T1 chain: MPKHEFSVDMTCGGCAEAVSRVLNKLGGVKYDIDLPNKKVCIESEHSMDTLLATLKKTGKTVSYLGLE
Kind of assay: proximity labelling. The settings on record: remark: other sources report otherwise.

B1: ATP7A, Q04656 1-1500 (protein)
chain: MDPSMGVNSVTISVEGMTCNSCVWTIEQQIGKVNGVHHIKVSLEEKNATIIYDPKLQTPKTLQEAIDDMGFDAVIHNPDPLPVLTDTLFLTVTASLTLPWDHIQSTLLKTKGVTDIKIYPQKRTVAVTIIPSIVNANQIKELVPELSLDTGTLEKKSGACEDHSMAQAGEVVLKMKVEGMTCHSCTSTIEGKIGKLQGVQRIKVSLDNQEATIVYQPHLISVEEMKKQIEAMGFPAFVKKQPKYLKLGAIDVERLKNTPVKSSEGSQQRSPSYTNDSTATFIIDGMHCKSCVSNIESTLSALQYVSSIVVSLENRSAIVKYNASSVTPESLRKAIEAVSPGLYRVSITSEVESTSNSPSSSSLQKIPLNVVSQPLTQETVINIDGMTCNSCVQSIEGVISKKPGVKSIRVSLANSNGTVEYDPLLTSPETLRGAIEDMGFDATLSDTNEPLVVIAQPSSEMPLLTSTNEFYTKGMTPVQDKEEGKNSSKCYIQVTGMTCASCVANIERNLRREEGIYSILVALMAGKAEVRYNPAVIQPPMIAEFIRELGFGATVIENADEGDGVLELVVRGMTCASCVHKIESSLTKHRGILYCSVALATNKAHIKYDPEIIGPRDIIHTIESLGFEASLVKKDRSASHLDHKREIRQWRRSFLVSLFFCIPVMGLMIYMMVMDHHFATLHHNQNMSKEEMINLHSSMFLERQILPGLSVMNLLSFLLCVPVQFFGGWYFYIQAYKALKHKTANMDVLIVLATTIAFAYSLIILLVAMYERAKVNPITFFDTPPMLFVFIALGRWLEHIAKGKTSEALAKLISLQATEATIVTLDSDNILLSEEQVDVELVQRGDIIKVVPGGKFPVDGRVIEGHSMVDESLITGEAMPVAKKPGSTVIAGSINQNGSLLICATHVGADTTLSQIVKLVEEAQTSKAPIQQFADKLSGYFVPFIVFVSIATLLVWIVIGFLNFEIVETYFPGYNRSISRTETIIRFAFQASITVLCIACPCSLGLATPTAVMVGTGVGAQNGILIKGGEPLEMAHKVKVVVFDKTGTITHGTPVVNQVKVLTESNRISHHKILAIVGTAESNSEHPLGTAITKYCKQELDTETLGTCIDFQVVPGCGISCKVTNIEGLLHKNNWNIEDNNIKNASLVQIDASNEQSSTSSSMIIDAQISNALNAQQYKVLIGNREWMIRNGLVINNDVNDFMTEHERKGRTAVLVAVDDELCGLIAIADTVKPEAELAIHILKSMGLEVVLMTGDNSKTARSIASQVGITKVFAEVLPSHKVAKVKQLQEEGKRVAMVGDGINDSPALAMANVGIAIGTGTDVAIEAADVVLIRNDLLDVVASIDLSRKTVKRIRINFVFALIYNLVGIPIAAGVFMPIGLVLQPWMGSAAMAASSVSVVLSSLFLKLYRKPTYESYELPARSQIGQKSPSEISVHVGIDDTSRNSPKLGLLDRIVNYSRASINSLLSDKRSLNSVVTSEPDKHSLLVGDFREDDDTAL
Turning to B1, the binding result was “binds”.
